Laboratory results: PubChem BioAssay AID652243 (Drosophila RNAi Screening Center, 2013)
Screen: 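Fly regulators of androgen-dependent reporter output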 (primary screen). Cells: Drosophila S2R+ cells. Knock-down reagent: long dsRNA against Drosophila genes. Time to read-out: 72 h (48 h, then 24 h hormone). Treatment: synthetic androgen R1881 at 10 nM for 24 h. Read-out: 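Firefly light from an androgen-responsive reporter and Renilla control light per well, raw and unnormalised, for each of two replicates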. Direction: firefly reporter light: higher = more light from androgen-responsive reporter; Renilla control light: higher = more constitutive control signal (cell number, transfection). Call rule: 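Across duplicate plates, a knock-down whose log firefly/Renilla ratio shifted a set fold down or up from the GFP/LacZ control mean was a hit; the downward cut appears as both 1.5 and 3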. Calls: active = hit: reporter lowered or raised; inactive = no hit.
The deposit covers about 24,000 reagents; this is a random part of those that have a named target and a result. Of all reagents, 246 (1%) are marked active. 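Plates not normalised; calls are printed but the firefly/Renilla ratio behind them is not deposited; fold cut for lowering reported inconsistently.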 The raw values are shown without normalisation. A plus sign joins genes that one reagent is predicted to hit. Not given: the amount of reagent.

predicted target | PubChem SID | firefly reporter light, replicate 1 | firefly reporter light, replicate 2 | Renilla control light, replicate 1 | Renilla control light, replicate 2 | activity call
CG18542 + CG32939 | SID104195134 | 27589 | 79952 | 1.71e5 | 4.61e5 | inactive
ZnT63C | SID104187824 | 1.33e5 | 1.71e5 | 3.03e5 | 2.93e5 | inactive
ZnT63C | SID104187825 | 1.29e5 | 1.40e5 | 1.67e5 | 2.11e5 | inactive
ZnT63C | SID104188311 | 4.99e5 | 1.35e6 | 7.55e5 | 1.78e6 | inactive
ZnT63C | SID104201590 | 1.16e5 | 1.04e5 | 7.45e5 | 6.28e5 | active
ZnT63C | SID104202779 | 7.56e5 | 8.78e5 | 8.47e5 | 8.85e5 | inactive
CG33232 (retired record) | SID104187979 | 8.12e5 | 9.67e5 | 1.36e6 | 1.32e6 | inactive
CG33232 (retired record) | SID104188287 | 38629 | 97837 | 7.12e5 | 1.01e6 | inactive
eIF4EHP | SID104193445 | 2.17e5 | 1.97e5 | 3.42e5 | 5.31e5 | inactive
eIF4EHP | SID104194057 | 50491 | 54792 | 5.60e5 | 5.76e5 | inactive
Gycalpha99B | SID104196482 | 88682 | 76176 | 5.26e5 | 5.15e5 | inactive
Gycalpha99B | SID104203394 | 5.59e5 | 4.91e5 | 5.14e5 | 5.63e5 | inactive
BicD | SID104181798 | 1.36e6 | 1.44e6 | 1.57e6 | 1.72e6 | inactive
CG13325 | SID104186154 | 2.33e6 | 1.76e6 | 1.96e6 | 1.67e6 | inactive
CG13325 | SID104203388 | 9.22e5 | 8.46e5 | 1.12e6 | 1.25e6 | inactive
CG13606 | SID104194401 | 2.34e5 | 2.26e5 | 2.90e6 | 3.10e6 | inactive
CG1344 | SID104184629 | 1.03e6 | 7.72e5 | 1.23e6 | 1.44e6 | active
CG1344 | SID104214363 | – | – | – | – | inactive
CG1344 | SID104214364 | – | – | – | – | inactive
Atg3 | SID104190528 | 4.71e5 | 3.72e5 | 3.32e6 | 3.03e6 | inactive
Atg3 | SID104201426 | 4.75e5 | 4.32e5 | 3.74e6 | 4.18e6 | inactive
Atg3 | SID104208231 | 8.02e5 | 6.63e5 | 1.45e6 | 1.09e6 | inactive
CG14855 | SID104194771 | 2.22e5 | 1.90e5 | 2.57e6 | 2.75e6 | inactive
CG14855 | SID104205894 | 5.38e5 | 5.41e5 | 9.22e5 | 9.63e5 | inactive
CG14855 | SID104216643 | 1.02e6 | 8.30e5 | 2.27e6 | 2.00e6 | inactive
ppk24 | SID104194885 | 2.22e5 | 2.65e5 | 2.68e6 | 2.53e6 | inactive
CG14657 | SID104192011 | 1.20e5 | 1.17e5 | 3.31e6 | 3.21e6 | inactive
CG14657 | SID104192035 | 30424 | 23513 | 3.43e5 | 4.65e5 | inactive
MED26 | SID104196918 | 1.06e6 | 1.14e6 | 1.20e6 | 8.70e5 | inactive
MED26 | SID104196939 | 5.07e5 | 3.62e5 | 2.71e6 | 1.88e6 | inactive
MED26 | SID104196940 | 1.93e5 | 1.33e5 | 3.23e5 | 2.56e5 | inactive
HSPC300 | SID104202239 | 5.24e5 | 9.70e5 | 1.42e6 | 2.45e6 | inactive
CG42521 | SID104189946 | 2.62e5 | 1.59e5 | 3.25e6 | 2.45e6 | inactive
Tgi | SID104189585 | 2.49e5 | 1.83e5 | 1.92e6 | 1.70e6 | inactive
Tgi | SID104189586 | 2.23e5 | 2.22e5 | 2.69e6 | 2.30e6 | inactive
Tgi | SID104204063 | 7.74e5 | 7.25e5 | 5.01e5 | 6.18e5 | inactive
CG31086 + CG31323 | SID104194694 | 1.78e5 | 1.82e5 | 1.91e6 | 2.19e6 | inactive
CG31086 + CG31323 | SID104203214 | 5.80e5 | 5.91e5 | 8.30e5 | 7.97e5 | inactive
CG31741 | SID104182679 | 91827 | 1.77e5 | 1.35e6 | 2.12e6 | inactive

Records above whose target name begins with E or e:
predicted target | PubChem SID | firefly reporter light, replicate 1 | firefly reporter light, replicate 2 | Renilla control light, replicate 1 | Renilla control light, replicate 2 | activity call
eIF4EHP | SID104193445 | 2.17e5 | 1.97e5 | 3.42e5 | 5.31e5 | inactive
eIF4EHP | SID104194057 | 50491 | 54792 | 5.60e5 | 5.76e5 | inactive

The list goes on.
predicted target | PubChem SID | firefly reporter light, replicate 1 | firefly reporter light, replicate 2 | Renilla control light, replicate 1 | Renilla control light, replicate 2 | activity call
qkr54B | SID104187462 | 1.26e5 | 1.18e5 | 1.83e6 | 1.83e6 | inactive
qkr54B | SID104203441 | 6.71e5 | 5.63e5 | 5.57e5 | 5.90e5 | inactive
CG43373 | SID104189661 | 2.01e5 | 1.66e5 | 1.35e6 | 1.32e6 | inactive
CG43373 | SID104189677 | 2.13e5 | 1.70e5 | 1.90e6 | 1.71e6 | inactive
CG43373 | SID104205375 | 7.35e5 | 5.10e5 | 1.14e6 | 4.20e5 | inactive
GAPcenA | SID104190563 | 2.10e5 | 1.91e5 | 2.42e6 | 2.03e6 | inactive
CG17807 | SID104184088 | 6.59e5 | 4.85e5 | 1.48e6 | 1.54e6 | inactive
CG17807 | SID104204932 | 2.85e5 | 2.14e5 | 6.44e5 | 5.72e5 | inactive
CG11679 | SID104199207 | 78606 | 82290 | 6.24e5 | 5.82e5 | inactive
CG13042 | SID104189715 | 3.67e5 | 2.90e5 | 3.13e6 | 2.42e6 | inactive
CG13042 | SID104207162 | 3.99e5 | 2.96e5 | 1.57e6 | 1.59e6 | inactive
CG6209 | SID104186760 | 61801 | 49714 | 1.58e6 | 1.58e6 | inactive
CG6209 | SID104207344 | 4.29e5 | 3.37e5 | 1.28e6 | 1.18e6 | inactive
Ir51b | SID104185332 | 78394 | 66616 | 1.78e5 | 1.42e5 | inactive
Pka-C2 | SID104196582 | 98087 | 71564 | 1.24e6 | 1.27e6 | inactive
Pka-C2 | SID104202667 | 6.69e5 | 7.05e5 | 7.03e5 | 8.24e5 | inactive
Pka-C2 | SID104207620 | 4.74e5 | 4.45e5 | 1.54e6 | 1.73e6 | inactive
Glyp | SID104180544 | 3.08e5 | 3.47e5 | 2.96e6 | 3.39e6 | inactive
CG14625 | SID104198425 | 1.27e5 | 1.70e5 | 2.16e6 | 1.86e6 | inactive
CG14625 | SID104203737 | 7.51e5 | 9.02e5 | 9.44e5 | 8.30e5 | inactive
